Laboratory results: PubChem BioAssay AID504791 (Drosophila RNAi Screening Center, 2011)
Assay: 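Genes of the fly required for silencing by miRNA, siRNA or endo-siRNA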 (primary screen). Cells: Drosophila S2-derived reporter cells. Reagents: long dsRNA against Drosophila genes, about 150-250 ng dsRNA per well (siRNA assay); about 80-120 ng (miRNA assay). Time to read-out: about 5 days (siRNA assay); about 4 days (miRNA assay). Conditions: copper sulfate induction of reporters: 25 µM (siRNA assay); 200 mM stated (miRNA assay), 1-2 days before reading. Measurement: 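Dual luciferase assay: Renilla to firefly signal ratio in each well, scaled to the mean ratio of its plate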. Hit rule: 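a well was a first-pass pick when its plate-scaled ratio rose above 1.5 (siRNA assay) or 1.6 (miRNA assay), or dropped below 0.6; a gene counted only if two separate dsRNAs agreed on retest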.
The screen tested about 23,000 reagents; shown is an unselected part of those with a known target gene and a result. Of all reagents, 199 (0.86%) were called active. 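Plate-scaled ratios behind the calls are not deposited; printed light signals are raw; many rows marked increased or decreased are still called inactive.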 Names joined by + are all predicted targets of the reagent. The record does not give: the direction of the score.

Gene	dsRNA	stable siRNA reporter change	stable assay Renilla, run 1 (luminescence)	stable assay firefly, run 1 (luminescence)	Call
ppk13 (pickpocket 13)	DRSC02382		6624	3.64e5	inactive
CG44014	DRSC14995		6966	5.06e5	inactive
T3dh + pgc	DRSC04659		19955	1.36e6	inactive
Muc18B (Mucin 18B)	DRSC20064		5936	3.11e5	inactive
Muc18B (Mucin 18B)	DRSC21644		8658	4.93e5	inactive
CG9578	DRSC20694		7470	4.31e5	inactive
Shawn + Tyler	DRSC19564		7887	5.81e5	inactive
Shawn + Tyler	DRSC19565		5871	4.54e5	inactive
CG32119	DRSC09248		5607	4.06e5	inactive
CG32119	DRSC21462		9683	5.45e5	inactive
CG13482	DRSC10024		9317	3.04e5	inactive
CG3706	DRSC18649		8310	6.48e5	inactive
CG9119	DRSC08620		12206	4.95e5	inactive
CG33459	DRSC05615		6155	4.19e5	inactive
CG2616	DRSC15440		6239	3.29e5	inactive
CG1983	DRSC15410		5751	4.99e5	inactive
thoc5	DRSC04327		9360	1.65e6	inactive
srl (spargel)	DRSC12340		6302	4.41e5	inactive
Argp (Arginine phosphatase)	DRSC16510		7879	3.93e5	inactive
Ugt35E1 (UDP-glycosyltransferase family 35 member E1)	DRSC15193		5262	3.82e5	inactive
cyp33 + CG34194	DRSC05666		5695	3.72e5	inactive
Caf1-55 (Chromatin assembly factor 1, p55 subunit)	DRSC16596	reporter ratio raised past the hit cutoff	8221	2.83e5	active
Ufc1 (Ubiquitin-fold modifier conjugating enzyme 1)	DRSC07156		9893	3.53e5	inactive
CG12241	DRSC14481		7640	4.31e5	inactive
salt (salty dog)	DRSC15427	reporter ratio raised past the hit cutoff	17231	5.66e5	inactive
CG17560	DRSC15242		8061	4.27e5	inactive
CG6429	DRSC06986		7242	4.47e5	inactive
lectin-37Db	DRSC03279		7590	4.05e5	inactive
Fmo-2 (Flavin-containing monooxygenase 2)	DRSC04983		7655	1.46e6	inactive
CPT2 (Carnitine palmitoyltransferase 2)	DRSC08553		12147	5.70e5	inactive
Mic26-27 (MICOS subunit 26/27)	DRSC15913		8850	3.77e5	inactive
Cyp28c1 (Cytochrome P450 28c1)	DRSC20236		5407	3.49e5	inactive
Syn (Synapsin)	DRSC16876		6014	3.44e5	inactive
Shal (Shaker cognate l)	DRSC09625		4787	3.87e5	inactive
Shal (Shaker cognate l)	DRSC11283		6334	3.90e5	inactive

3 entries already listed, ordered by “stable assay firefly, run 1 (luminescence)”, highest first.
Gene	dsRNA	stable siRNA reporter change	stable assay Renilla, run 1 (luminescence)	stable assay firefly, run 1 (luminescence)	Call
T3dh + pgc	DRSC04659		19955	1.36e6	inactive
Muc18B (Mucin 18B)	DRSC21644		8658	4.93e5	inactive
Muc18B (Mucin 18B)	DRSC20064		5936	3.11e5	inactive
